Article PMC2800044
No constants are given. Whether binding was seen depends on the method and setting. In cells and extracts the contact can be indirect. Some binding calls cover weakened binding; strength is not graded here.

Molecular target: T1, TgGAP45 (Toxoplasma gondii (endogenous in tachyzoites)) (UniProt Q7Z289)
T1 sequence: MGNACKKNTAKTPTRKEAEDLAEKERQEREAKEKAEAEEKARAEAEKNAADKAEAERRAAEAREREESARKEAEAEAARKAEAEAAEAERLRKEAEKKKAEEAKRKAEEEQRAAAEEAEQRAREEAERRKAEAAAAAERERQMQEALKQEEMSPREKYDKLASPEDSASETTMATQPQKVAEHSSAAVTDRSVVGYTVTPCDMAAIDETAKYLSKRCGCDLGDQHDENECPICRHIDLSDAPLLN
Assay: co-IP; anti-TgGAP45 immunoprecipitation (protein A or G Sepharose) from 1% TX-100 extracts (50 mM Tris-Cl pH 8, 150 mM NaCl, 5 mM EDTA, 4°C) of 35S-labeled extracellular parasites treated with DMSO, 100 µM tachypleginA or other compounds; SDS-PAGE or 2D gel, autoradiography, anti-TgMLC1 western …

**Q.** Which binding does the source give for “TgMyoA, unconventional Class XIV myosin of Toxoplasma gondii (from UniProt O00934 1-831)” here?
**A.** The binding was “binds”.
